Measured values from PubChem BioAssay AID1671190 (National Center for Advancing Translational Sciences (NCATS), 2021).
“And” between values parts separate entries of the source, which are not always exact repeats. Identical values can stand only once. About 6,100 (1.1%) of roughly 580,000 compounds were called active. About 15% were inconclusive and are not listed. Calls come from the whole dose curve; as a rule, active = well fitted inhibition curve with a large enough effect; inconclusive = small, poorly fitted or top-dose-only effect, or another doubt; inactive = no such curve, though single readings can be large or run the other way. The entries are a selection whose mix differs from that of the whole data set. The source gives no active or inactive call for entries shown without one. Some compounds were tested as several samples or in several runs, with calls that do not always agree.

Sequences of proteins named here, by UniProt entry; tags and fusion partners are left off. A change or cut given only in a name is not applied to a line headed by its entry.
UniProt P18054: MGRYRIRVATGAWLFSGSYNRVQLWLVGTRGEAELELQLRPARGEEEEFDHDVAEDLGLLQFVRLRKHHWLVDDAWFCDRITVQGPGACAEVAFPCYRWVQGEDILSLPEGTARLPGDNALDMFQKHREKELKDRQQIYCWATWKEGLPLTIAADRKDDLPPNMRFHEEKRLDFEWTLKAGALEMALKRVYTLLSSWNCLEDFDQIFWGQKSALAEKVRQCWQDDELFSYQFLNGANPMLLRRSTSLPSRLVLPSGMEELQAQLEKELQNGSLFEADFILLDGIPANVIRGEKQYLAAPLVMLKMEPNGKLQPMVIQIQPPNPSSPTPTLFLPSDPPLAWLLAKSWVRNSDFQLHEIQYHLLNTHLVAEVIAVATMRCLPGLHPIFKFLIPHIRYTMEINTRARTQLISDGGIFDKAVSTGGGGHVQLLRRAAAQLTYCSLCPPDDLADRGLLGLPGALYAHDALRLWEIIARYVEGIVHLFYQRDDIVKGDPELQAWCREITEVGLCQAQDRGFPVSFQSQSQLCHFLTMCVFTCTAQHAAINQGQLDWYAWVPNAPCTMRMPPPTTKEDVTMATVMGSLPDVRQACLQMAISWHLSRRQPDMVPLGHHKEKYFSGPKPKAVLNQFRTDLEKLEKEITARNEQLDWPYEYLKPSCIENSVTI

target: Polyunsaturated fatty acid lipoxygenase ALOX12 (Homo sapiens) (UniProt P18054); experiment: Primary qHTS assay for inhibitors of human arachidonate 12S-lipoxygenase (ALOX12): Round 2; details: purified 12hLO, xylenol orange hydroperoxide absorbance; activity change, negative = inhibition: at 0.00344 µM (top of the series) unless noted
How it was run: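 Purified human 12hLO (150 nM final) in 25 mM Hepes, 0.01% Triton X-100, pH 7.0 was preincubated 15 min at room temperature with compound. Then 40 uM arachidonic acid was added, 30 min. Hydroperoxide was read by Fe-XO absorbance ratio 573/405 nm.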
% is set by controls: 0 for no effect and ±100 for the full control effect; potency is the fitted concentration of half-maximal effect.

Compound | activity change, negative = inhibition | Potency
OCCOc1ccccc1 | 16% | –
O=c1n(Cl)c(=O)n(Cl)c(=O)n1Cl | -7.72% | –
CC(CC(C#N)(c1ccccc1)c1ccccc1)N(C)C (configuration not stated) | -18.3% [at 0.00599 µM] | –
CCOP(=S)(OCC)O/N=C(\C#N)c1ccccc1 | 4.44% | –
CC(C)NCC(O)c1ccc([N+](=O)[O-])cc1 (configuration not stated) | -30.1% | –
CC(Cc1ccccc1)NCCn1cnc2c1c(=O)n(C)c(=O)n2C (configuration not stated) | 23% [at 0.00599 µM] | –
CCN(CC)C(=O)N[C@@H]1C=C2c3cccc4[nH]cc(c34)C[C@@H]2N(C)C1 | 1.76% | –
CCC1(c2ccccc2)C(=O)N(COC)C(=O)N(COC)C1=O | 21.9% | –
ClCCCN1CCN(c2cccc(Cl)c2)CC1 | 23.6% | –
CC(=O)[C@H]1CC[C@H]2[C@@H]3CC[C@H]4C[C@](C)(O)CC[C@]4(C)[C@H]3CC[C@]12C | -26.6% | –
CCOC(=O)C1(c2ccccc2)CCN(CCC(C#N)(c2ccccc2)c2ccccc2)CC1 | -25.3% | –
NC1=NC(=O)C(c2ccccc2)O1 (configuration not stated) | 25.2% | –
O=C1OC(c2ccc(O)c(S(=O)(=O)O)c2)(c2ccc(O)c(S(=O)(=O)O)c2)c2c(Br)c(Br)c(Br)c(Br)c21 | 45.6% | –
CC(C)=C[C@@H]1[C@@H](C(=O)OCc2coc(Cc3ccccc3)c2)C1(C)C | -31.5% | –
CCCN(CCC)CCc1c[nH]c2ccccc12 | -13.9% [at 0.00599 µM] | –
CC(NC(C)(C)C)C(=O)c1cccc(Cl)c1 (configuration not stated) | 45.3% | –
NCc1cccnc1 | -33.6% | –
CN(C)[C@@H]1C(=O)C(C(N)=O)=C(O)[C@@]2(O)C(=O)C3=C(O)c4c(O)cccc4[C@@](C)(O)[C@H]3C[C@@H]12 | 12% | –
CN1C(=O)/C(=C/c2ccc(Cl)s2)C(=O)NC1=S | – | active: 4.47 µM
Cn1c(CCCC(=O)O)nc2cc(N(CCCl)CCCl)ccc21 | 24.1% | –
CC(C)COc1ccc(Cc2c(O)[nH]c(=S)[nH]c2=O)cc1 | – | active: 8.91 µM
CCN(CC)CCc1c[nH]c2ccccc12 | 19.4% [at 0.0105 µM] | –

Compound | activity change, negative = inhibition | Potency
CC(=O)OC1(c2ccccc2)CCN(CCc2ccccc2)CC1 | -11.9% [at 0.00599 µM] | –
CN1CCN(C(=O)O[C@H]2c3nccnc3C(=O)N2c2ccc(Cl)cn2)CC1 | -11.3% | –
Oc1ccc2[nH]cc(CCCCN3CC=C(c4ccccc4)CC3)c2c1 | 19.7% | –
O=Cc1c(C(=O)O)n(Cc2ccc(Cl)cc2)c2ccccc12 | – | active: 11.2 µM
C[C@H]1O[C@@H](O[C@H]2[C@@H](O)C[C@H](O[C@H]3[C@@H](O)C[C@H](O[C@H]4CC[C@@]5(C)[C@H](CC[C@@H]6[C@@H]5CC[C@]5(C)[C@@H](C7=CC(=O)OC7)CC[C@]65O)C4)O[C@@H]3C)O[C@@H]2C)C[C@H](O)[C@@H]1O | -12.9% | –
CCOC(C(=O)OCCN(C)C)(c1ccccc1)c1ccccc1 | -16.7% | –
O=c1[nH]oc2c1CCNC2 | 7.4% | –
O=C(O)c1nn(Cc2ccc(Cl)cc2Cl)c2ccccc12 | 11% | –
C[C@@H]1C[C@@H]([C@H](O)CC2CC(=O)NC(=O)C2)C(=O)[C@@H](C)C1 | 26.9% | –
C[n+]1ccc(-c2ccncc2)cc1 | – | active: 12.6 µM
C[C@H](N)C(=O)c1ccccc1 | -15.6% [at 0.0105 µM] | –
CC[C@@H](CO)NC(=O)[C@@H]1C=C2c3cccc4[nH]cc(c34)C[C@H]2N(C)C1 | -6.39% | –
CCC1(CCC(C)C)C(=O)NC(=O)NC1=O | 15.6% [at 0.00599 µM] | –
Cc1ncsc1CCCl | -28.1% | –
Cc1ccc(CNCCc2c[nH]c3ccccc23)c(C)c1 | – | active: 12.6 µM
O=C(CCCN1CCC2(CC1)C(=O)NCN2c1ccccc1)c1ccc(F)cc1 | 22.5% | –
O=[N+]([O-])O[C@H]1CO[C@H]2[C@@H]1OC[C@H]2O[N+](=O)[O-] | 47.5% | –
C=C1CC[C@@]2(O)[C@H]3Cc4ccc(O)c5c4[C@@]2(CCN3CC2CC2)[C@H]1O5 | 10.2% | –
C[C@]12Cc3nonc3C[C@@H]1CC[C@@H]1[C@@H]2CC[C@@]2(C)[C@H]1CC[C@]2(C)O | 4.44% | –
CCC(=O)C(CC(C)N(C)C)(c1ccccc1)c1ccccc1 (configuration not stated) | 16% [at 0.00599 µM] | –
CN(C)c1ccc2c(c1)N=C(c1ccco1)OP2(=S)N1CCOCC1 (configuration not stated) | – | active: 20 µM
CN1CCC(N(Cc2ccccc2)c2ccccc2)CC1 | 20.6% | –

Compound | activity change, negative = inhibition | Potency
CCCCCCCCCC(=O)O[C@H]1CC[C@H]2[C@@H]3CCC4=CC(=O)CC[C@@H]4[C@H]3CC[C@]12C | -4.52% | –
CCN[C@H](C)Cc1cccc(C(F)(F)F)c1 | 1.7% [at 0.00599 µM] | –
CC(C)c1cccc(C(C)C)c1O | -34.2% | –
CN(C)CCc1c[nH]c2ccccc12 | -12.5% [at 0.0105 µM] | –
CC[N+]1(C)CCCC(OC(=O)C(O)(c2ccccc2)c2ccccc2)C1 (configuration not stated) | 15.1% | –
c1ccc2c(c1)OCC(C1=NCCN1)O2 (configuration not stated) | -25.6% | –
c1ccc(Nc2ccc(Nc3ccccc3)cc2)cc1 | – | active: 14.1 µM
CC[C@@H](CO)NC(=O)[C@@H]1C=C2c3cccc4c3c(cn4C)C[C@H]2N(C)C1 | 0.954% | –
c1ccc(CN2CCNCC2)cc1 | 20.1% [at 0.0105 µM] | –
CN1C(=O)CN=C(c2ccccc2)c2cc(Cl)ccc21 | -27.7% | –
C[C@]12CC[C@H](O)CC1=CC[C@@H]1[C@@H]2CC[C@]2(C)C(=O)CC[C@@H]12 | -13.3% | –
CC(Cc1ccccc1)NCc1ccccc1Cl (configuration not stated) | -27.8% | –
COc1ccc2c(c1OC)CN1CCc3cc4c(cc3C1C2)OCO4 (configuration not stated) | -16.6% | –
C[CH2][Hg][S]c1ccccc1C(=O)O | -32.9% | –
Cc1ncc(CNC(=O)N(CCCl)N=O)c(N)n1 | 46.9% | –
COc1cc(C[C@@H](C)N)c(OC)cc1C | -9.06% [at 0.00599 µM] | –
O=c1[nH]c(=S)n(Cc2ccc(F)cc2)c(O)c1/C=N/N1CCCCCC1 | – | active: 35.5 µM
CC(C)(C)NCC(O)c1cc(Cl)c(N)c(C(F)(F)F)c1 (configuration not stated) | 24.1% | –
c1ccc(N2CCNCC2)cc1 | 21.4% | –
Oc1ccc(Cl)cc1Cc1ccccc1 | 11.4% | –
COc1ccc2c3c1O[C@H]1[C@@H](O)C=C[C@H]4[C@@H](C2)N(C)CC[C@@]341 | -0.486% [at 0.00599 µM] | –
COc1cc(CC(C)N)cc(OC)c1OC (configuration not stated) | -74.4% [at 0.00599 µM] | –

Compound | activity change, negative = inhibition | Potency
Cc1ccc(Cl)c(O)c1 | 1.03% | –
COc1ccc2[nH]cc(CCN(C(C)C)C(C)C)c2c1 | 30.7% [at 0.00599 µM] | –
CN1C[C@@H](NS(=O)(=O)N(C)C)C[C@@H]2c3cccc4c3c(cn4C)C[C@H]21 | -24.3% | –
CC(C)(O)C(Cl)(Cl)Cl | -33.2% | –
Oc1cccc2cccnc12 | -0.0964% | –
CC(C)(N)Cc1ccccc1Cl | 25.5% | –
c1ccc2nc(N3CCNCC3)ccc2c1 | 16.7% | –
CC(CCc1ccccc1)NC(C)C(O)c1ccc(O)cc1 (configuration not stated) | -27.8% | –
CC1Sc2c(C(=O)O)c(=O)c3cc(F)c(N4CCNCC4)cc3n21 (configuration not stated) | -51.6% | –
O=c1oc2ccccc2c(O)c1C(CC(O)c1ccc(-c2ccc(Br)cc2)cc1)c1ccccc1 (configuration not stated) | 43.6% | –
CCCC[N+]1(C)[C@@H]2CC(OC(=O)[C@H](CO)c3ccccc3)C[C@H]1[C@@H]1O[C@@H]12 (some centres not stated) | 27.9% | –
CCCOC(=O)c1cncn1C(C)c1ccccc1 (configuration not stated) | 6.2% | –
Clc1cccc(N2CCNCC2)c1 | 5.79% | –
Clc1ccc(CSC(Cn2ccnc2)c2ccc(Cl)cc2Cl)cc1 (configuration not stated) | -8.42% | –
Oc1c(Br)cc(Br)cc1Br | 46.5% | –
NNc1ccccc1 | 3.79% | –
O=C(O)c1cc(Oc2ccc(C(F)(F)F)cc2Cl)ccc1[N+](=O)[O-] | 7.55% | –
Cc1ncc2n1-c1ccc(Cl)cc1C(c1ccccc1F)=NC2 | 36.7% | –
CC(C)=CC1C(C(=O)OCc2cccc(Oc3ccccc3)c2)C1(C)C (configuration not stated) | -17.9% | –
C=CCC1(C(C)CC)C(=O)NC(=O)NC1=O (configuration not stated) | 11.3% | –
CCC(=O)OC1(c2ccccc2)CCN(C)CC1 | -65.4% [at 0.00599 µM] | –
C#CCOC(C(=O)OCCN(C)C)(c1ccccc1)c1ccccc1 | -15.5% | –

Compound | activity change, negative = inhibition | Potency
COc1cccc(C(=O)CCN[C@@H](C)[C@H](O)c2ccccc2)c1 | -33.9% | –
COc1ccc(OC)c(CC(C)N)c1 (configuration not stated) | -12% [at 0.00599 µM] | –
CN1C(=S)CN=C(c2ccccc2)c2cc(Cl)ccc21 | 1.6% | –
COc1ccc(C(=O)N2CCCC2=O)cc1 | -13.5% | –
Nc1ccncc1 | -8.44% | –
C[N+]1(CCF)[C@@H]2CC[C@H]1CC(OC(=O)C(O)(c1ccccc1)c1ccccc1)C2 (some centres not stated) | 36.3% | –
NC1(c2ccccc2)CCCCC1 | 13.3% [at 0.00599 µM] | –
O=C1c2ccccc2C(=O)C1C(=O)C(c1ccccc1)c1ccccc1 | 9.24% | –
COc1ccc(C(=O)C(C)(C)NO)cc1 | – | active: 17.8 µM and active: 5.01 µM
C[N+]1(CCC(C(N)=O)(c2ccccc2)c2ccccc2)CCCCC1 | -17.5% | –
COC(C)(C)CCCC(C)C/C=C/C(C)=C/C(=O)OC(C)C (configuration not stated) | 52.1% | –
CC(Cc1ccc2c(c1)OCO2)NO (configuration not stated) | -0.922% [at 0.00599 µM] | –
Cc1ccc(N=CN(C)C=Nc2ccc(C)cc2C)c(C)c1 | 7.67% | –
CC(C)CC(N(C)C)C1(c2ccc(Cl)cc2)CCC1 (configuration not stated) | -8.34% | –
C[C@H]1[C@@H]2Cc3ccc(O)cc3[C@@]1(C)CCN2C | -20.2% [at 0.0215 µM] | –
C#C[C@]1(O)CC[C@H]2[C@@H]3CCC4=CC(=O)CC[C@]4(C)[C@H]3CC[C@@]21C | 23.2% | –
CCN1CCCCC12Cc1ccccc1CN(C(=O)Cc1ccccc1)C2 (configuration not stated) | – | active: 6.31 µM
CC(C)[N+](C)(CCC(C(N)=O)(c1ccccc1)c1ccccc1)C(C)C | -31% | –
CC[C@H](O)C(C[C@H](C)N(C)C)(c1ccccc1)c1ccccc1 | -48.7% [at 0.00599 µM] | –
